Measurements published in publication PMC6650902.
Results are given in words; binding and its absence hold for the method and conditions named. Binding seen in cells or lysates may run through a third protein. A yes stands for co-enrichment or nearness to the bait. Other partners may have been found. Values belong to the molecule of their own block, whether it stands above or below them.

Amino acid sequences for entries named in this document (tags omitted).
UniProt Q03761: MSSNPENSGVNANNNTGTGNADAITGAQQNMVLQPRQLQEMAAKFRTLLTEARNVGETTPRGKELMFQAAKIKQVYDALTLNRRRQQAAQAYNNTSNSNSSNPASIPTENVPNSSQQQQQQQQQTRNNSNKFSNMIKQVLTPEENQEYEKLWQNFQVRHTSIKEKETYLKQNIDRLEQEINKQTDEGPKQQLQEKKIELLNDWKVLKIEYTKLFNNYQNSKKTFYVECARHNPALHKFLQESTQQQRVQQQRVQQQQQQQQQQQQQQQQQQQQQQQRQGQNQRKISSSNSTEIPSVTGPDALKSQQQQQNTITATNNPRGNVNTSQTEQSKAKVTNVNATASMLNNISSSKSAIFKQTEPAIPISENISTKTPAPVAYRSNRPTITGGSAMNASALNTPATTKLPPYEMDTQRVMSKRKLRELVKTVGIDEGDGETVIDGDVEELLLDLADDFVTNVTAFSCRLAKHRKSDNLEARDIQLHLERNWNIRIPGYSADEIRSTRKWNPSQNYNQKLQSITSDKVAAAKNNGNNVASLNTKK
UniProt P35189: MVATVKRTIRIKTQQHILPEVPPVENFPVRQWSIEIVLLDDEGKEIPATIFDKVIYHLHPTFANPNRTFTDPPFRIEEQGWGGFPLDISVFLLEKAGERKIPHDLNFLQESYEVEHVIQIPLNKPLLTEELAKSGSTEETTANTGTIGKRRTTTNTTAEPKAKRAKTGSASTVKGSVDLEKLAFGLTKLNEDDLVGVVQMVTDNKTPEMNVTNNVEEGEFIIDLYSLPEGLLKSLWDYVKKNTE

Biological target: T1, TAF1-TAP (S. cerevisiae) (UniProt P46677)
T1 sequence: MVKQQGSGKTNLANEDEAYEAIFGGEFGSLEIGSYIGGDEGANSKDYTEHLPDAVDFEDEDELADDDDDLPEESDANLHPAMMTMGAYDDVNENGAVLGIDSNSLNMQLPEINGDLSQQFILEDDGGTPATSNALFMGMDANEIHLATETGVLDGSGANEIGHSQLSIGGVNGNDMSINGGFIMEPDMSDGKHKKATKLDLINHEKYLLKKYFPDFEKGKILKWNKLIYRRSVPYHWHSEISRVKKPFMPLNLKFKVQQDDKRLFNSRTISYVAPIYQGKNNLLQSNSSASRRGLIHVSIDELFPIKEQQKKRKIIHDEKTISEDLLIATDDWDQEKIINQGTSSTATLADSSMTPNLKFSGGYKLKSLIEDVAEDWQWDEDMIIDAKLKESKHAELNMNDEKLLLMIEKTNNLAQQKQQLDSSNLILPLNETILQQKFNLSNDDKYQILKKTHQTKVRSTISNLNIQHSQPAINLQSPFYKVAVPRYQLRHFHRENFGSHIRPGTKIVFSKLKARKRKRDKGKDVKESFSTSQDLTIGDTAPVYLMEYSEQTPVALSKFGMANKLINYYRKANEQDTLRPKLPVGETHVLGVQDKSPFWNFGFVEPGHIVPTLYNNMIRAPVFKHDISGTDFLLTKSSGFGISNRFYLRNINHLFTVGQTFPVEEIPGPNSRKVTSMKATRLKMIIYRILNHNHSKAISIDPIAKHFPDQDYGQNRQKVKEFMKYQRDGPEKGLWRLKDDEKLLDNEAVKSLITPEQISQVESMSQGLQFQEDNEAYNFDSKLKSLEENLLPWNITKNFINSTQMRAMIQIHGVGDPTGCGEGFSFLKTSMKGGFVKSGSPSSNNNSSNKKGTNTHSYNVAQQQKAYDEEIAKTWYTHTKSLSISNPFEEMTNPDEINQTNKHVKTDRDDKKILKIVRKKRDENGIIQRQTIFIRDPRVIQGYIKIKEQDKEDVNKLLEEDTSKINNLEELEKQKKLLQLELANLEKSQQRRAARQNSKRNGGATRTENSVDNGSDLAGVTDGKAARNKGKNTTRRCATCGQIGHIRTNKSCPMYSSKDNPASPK
Test: affinity purification with mass spectrometry; lysate of the TAF1-TAP strain on an IgG column; washes with 1 M and 50 mM potassium acetate; TEV protease elution; Superose 6 size exclusion (single peak at about 12.6 mL); subunits seen by SDS-PAGE and confirmed by mass spectrometry

binding: binds
Molecule: TAF12 (from UniProt Q03761 1-539)

binding: binds
Molecule: TAF14 (from UniProt P35189 1-244)

binding: binds
B1: TAF8 (protein, UniProt Q03750 1-510)
chain: MTSKTSESGTGTQSTIVQLRNLPDLTEISHLEIDAPVVEILKKTVLFQLNSLNICISNFALDELVNLVTVQMDGMFRNLHNLTLLQRRSQASQADLKLLLREFNLDAPSLYQQFQASEFIKSKHSTEYEKLMSWSSLAALPHNEEDEEDELNNIEEQQNEINVLLPPSNPLEKQIPSWLPNFPPDHTYKFTPEFNHPITDLKTIKKEIVKESQESEKALLNLNKSLSHISSASNTPQPPGLDDEDAIEQQLEIWGNALEERKPTITEKSFNENNIEQYAKYRVELARERVTKFEVNQLKRTKNPFLKISETLYLPESPHQSHKTIQKTIELQFRKSMTLFMHNLPKVQKLKKEKIRMAKEERAKSLKRRQEELISQRTKREQDEGHDLELLLNNEHARDAADDTTTPNALNNSTIVINTNAEDEDDDINLFGILGSSEDENEMSSMPAENLVAESEPPTMTAQDTTNTTPVAHNTTNIDATTSHSPHSTPNENAPTSPPADIATDHDITM

binding: binds
B2: TAF4 (protein, UniProt P50105 1-388)
chain: MANSPKKPSDGTGVSASDTPKYQHTVPETKPAFNLSPGKASELSHSLPSPSQIKSTAHVSSTHNDAAGNTDDSVLPKNVSPTTNLRVESNGDTNNMFSSPAGLALPKKDDKKKNKGTSKADSKDGKASNSSGQNAQQQSDPNKMQDVLFSAGIDVREEEALLNSSINASKSQVQTNNVKIPNHLPFLHPEQVSNYMRKVGKEQNFNLTPTKNPEILDMMSSACENYMRDILTNAIVISRHRRKAVKINSGRRSEVSAALRAIALIQKKEEERRVKKRIALGLEKEDYENKIDSEETLHRASNVTAGLRAGSKKQYGWLTSSVNKPTSLGAKSSGKVASDITARGESGLKFREAREEPGIVMRDLLFALENRRNSVQTIISKGYAKIRD

binding: binds
B3: TAF5 (protein, UniProt P38129 1-798)
chain: MSQKQSTNQNQNGTHQPQPVKNQRTNNAAGANSGQQPQQQSQGQSQQQGRSNGPFSASDLNRIVLEYLNKKGYHRTEAMLRAESGRTLTPQNKQSPANTKTGKFPEQSSIPPNPGKTAKPISNPTNLSSKRDAEGGIVSSGRLEGLNAPENYIRAYSMLKNWVDSSLEIYKPELSYIMYPIFIYLFLNLVAKNPVYARRFFDRFSPDFKDFHGSEINRLFSVNSIDHIKENEVASAFQSHKYRITMSKTTLNLLLYFLNENESIGGSLIISVINQHLDPNIVESVTAREKLADGIKVLSDSENGNGKQNLEMNSVPVKLGPFPKDEEFVKEIETELKIKDDQEKQLNQQTAGDNYSGANNRTLLQEYKAMNNEKFKDNTGDDDKDKIKDKIAKDEEKKESELKVDGEKKDSNLSSPARDILPLPPKTALDLKLEIQKVKESRDAIKLDNLQLALPSVCMYTFQNTNKDMSCLDFSDDCRIAAAGFQDSYIKIWSLDGSSLNNPNIALNNNDKDEDPTCKTLVGHSGTVYSTSFSPDNKYLLSGSEDKTVRLWSMDTHTALVSYKGHNHPVWDVSFSPLGHYFATASHDQTARLWSCDHIYPLRIFAGHLNDVDCVSFHPNGCYVFTGSSDKTCRMWDVSTGDSVRLFLGHTAPVISIAVCPDGRWLSTGSEDGIINVWDIGTGKRLKQMRGHGKNAIYSLSYSKEGNVLISGGADHTVRVWDLKKATTEPSAEPDEPFIGYLGDVTASINQDIKEYGRRRTVIPTSDLVASFYTKKTPVFKVKFSRSNLALAGGAFRP

binding: binds
B4: TAF3 (protein, UniProt Q12297 1-353)
chain: MTTNNDFYFALLRISILQLLKAQGFDRARPSLVDVMTDLYAKFLSLLASEVSSIAQARCDQDDTIALQDITLALENLGIVKPTNVLDVYDENSELSSSRGMEKFKDWCIYSTQLTDARITALPTVELLQSEEKESDPLSAIPDYLNQLLQNKGAKQKLETKNRKTELIEDLINNNGLDDWIKLVIARQRINMIERASKKESQNVPALPHIAGYKSSILSRHHHTTITNEDRMPSAMTPRDEDALTEIQENPFVTSKLPIMRKENRLENITLSFEDEELESLGEVEGPNQKSQENNNEESFKENNKSLTESPHGDDRDISMFQFDSNVDTKWAEQEDMDSTFQRRTSLDYGGYF

binding: binds
B5: TAF7 (protein, UniProt Q05021 1-590)
chain: MAVIRIKKPRGPGEKDQPLEGEPKLKRIRIKTKVTDEDIKPKPKLKINLKKKKESADGKEKKNSLKLKLNLKKNEEPVKKIHKAPKLRLKPIRIPGEAYDSEASDIEDDPLIESGVILRILPDIQLEFVKNSLESGDYSGISIKWKNERHAVVTINDVMYGAILVDLPTVIEVNKSVDRKNLLKTFDVSQMLLCIRPIQEEEEVYALEAPDTEDLVVKHFEGIEDEIWENKETFLKGYNGAPLSDMEAKHLKEIALKGYDYKHGISPPLYNVRNRRFRRKMDPNEIDYVEKVVDMLLKQDKQAEEVSYDLVDKSELQARQERVSSWENFKEEPGEPLSRPALKKEEIHTIASAVGKQGAEEEGEEGMEEEEEEDLDLGAAFESEEEGSGAEGDKEQQQEEVGDEVDQDTGGEDDDDDDDGDIEAAGGESESDDEKDENRQHTELLADELNELETTLAHTKHKLSKATNPLLKSRFIDSIKKLEKEAELKRKQLQQTEDSVQKQHQHRSDAETANNVEEEEEEEEEEEEEDEVDEDEEDDEENDEDEDNVHEREHIQENKVVRELDEAPAEETLDQNDLDMMMLFGAEGDE

binding: binds
B6: TAF13 (protein, UniProt P11747 1-167)
chain: MSRKLKKTNLFNKDVSSLLYAYGDVPQPLQATVQCLDELVSGYLVDVCTNAFHTAQNSQRNKLRLEDFKFALRKDPIKLGRAEELIATNKLITEAKKQFNETDNQNSLKRYREEDEEGDEMEEDEDEQQVTDDDEEAAGRNSAKQSTDSKATKIRKQGPKNLKKTKK

binding: binds
B7: TAF6 (protein, UniProt P53040 1-516)
chain: MSTQQQSYTIWSPQDTVKDVAESLGLENINDDVLKALAMDVEYRILEIIEQAVKFKRHSKRDVLTTDDVSKALRVLNVEPLYGYYDGSEVNKAVSFSKVNTSGGQSVYYLDEEEVDFDRLINEPLPQVPRLPTFTTHWLAVEGVQPAIIQNPNLNDIRVSQPPFIRGAIVTALNDNSLQTPVTSTTASASVTDTGASQHLSNVKPGQNTEVKPLVKHVLSKELQIYFNKVISTLTAKSQADEAAQHMKQAALTSLRTDSGLHQLVPYFIQFIAEQITQNLSDLQLLTTILEMIYSLLSNTSIFLDPYIHSLMPSILTLLLAKKLGGSPKDDSPQEIHEFLERTNALRDFAASLLDYVLKKFPQAYKSLKPRVTRTLLKTFLDINRVFGTYYGCLKGVSVLEGESIRFFLGNLNNWARLVFNESGITLDNIEEHLNDDSNPTRTKFTKEETQILVDTVISALLVLKKDLPDLYEGKGEKVTDEDKEKLLERCGVTIGFHILKRDDAKELISAIFFGE

binding: binds
B8: TAF2 (protein, UniProt P23255 1-1407)
chain: MMSFSKNATPRAIVSESSTLHEMKFRNFRVAHEKISLDIDLATHCITGSATIIIIPLIQNLEYVTFDCKEMTIKDVLVENRRCDQFIHDDPLQTNLNGLTSQNVLYSDNSIEQSHFLRSKFASLNEYPETDSKSQLTIKIPSSIKISLEDANALSNYTPITPSIKTTPGFQESVFTPITLQIEYEIRNPKSGIKFDTVYADKPWLWNVYTSNGEICSSASYWVPCVDLLDEKSTWELEFSVPRLVKNIGTSKLIGQNGEESEKEKEDTPEHDEEEEGKPARVIKDEDKDSNLKNDEEGKNSKSKDAQDNDEEEEEGESDEEEEEGEEERRNIEESNNPSLRDVIVCCSEYSNIKELPHPIDLTKKKCIFQIINPVAPHHIGWAIGAFNSWSLPLISPPSVDAEDEVEEDKLRENVVDNVNDTMDDDIGSDIIPIQIFTLPTQETDELTVINSTVVCQKIIDFYSKEFGSYPFTCYSMVFLPTAPSKHMDFAALGICNTRLLYPLEVIDKAFSTTNELAWALANQWSCVNITPLDMNDYWCCLGIAGYMVFQVTKKLMGNNTYKYQLKRNSEAIVEQDFEKPPIGSTFTGSSRPISWSSKDLSFIQLKAPMILHILDRRMTKTERSFGMSRVLPKIFLQAMSGDLPNNSLTSSHFQHVCERVNKSKLENFFNEWVYGSGVPILRVTQRFNRKRMVIELGIRQVQDEELGHEKVVGEEGFFKSALDHLEHPDLNRTECFTGSMTIRIHEHDGTPYEHIVEIKDTFTKIDIQYNTKYRRLRKRGGGANDENGVENNNEEKPIVVDVNCLGNVYMSPEECSRFSLTEFNRTSESNELLKQNEAFEWIRIDSDLEWICQMHINQPDYMFSSQLRQDGDIEAQLEAIRYYEDVVVNGGVKSLVYSSILFRTAIDERYFFGIRLAACEALSKYVYDPDFTGGVKHLIQIFQILFCLEDSNIPKSNNFENPKLYFLQCNIPKYLAKVKNENGKCPKLVKQFLLDILVYNENGENKYSDDAYVRSLIENVVKVALNEYKDKAYMEKVKTQLLRYENLVNWLSSYESLIKTTIMYAKYKLHKVGAYDFTELTGMIMHTLTLGINNGDISRESFQNEFLMVLKIMLLEGGLKNKDALVLFTEILCFHEDSYIRDKSVDVLSECVNLVVMDGSLDTISDDIKSSVQSVHNEVKNIKSEDDIELFLSGHYVDDMKIKIEKIGRQNISGLIQICRDMFKGYSPLKILLWDVLNLPVLSLYQRKQIHDLVRVMYTLINSFVVRLETPRERRLVAKMNSNEEGKLDIVIKRESILKVHIKKEVTSTVEAPKKANKIKISLKGDKPVRKVEKQIVKPKVTSKQRKVKSHVNRMGSLPLRFVKIQQQPRVMVHLSSVPYSQFVQITKVTSRSFMVKIRTKNDAKN
